# Measurements: patent publication US7446092B2, “Glycogen synthase kinase-3 inhibitors” (Tel Aviv University Future Technology Development L.P., priority 2002, dated 2008)
# Chains of the proteins cited; added tags and fusions are not shown. Residues count along the entry.
# UniProt A0A5F9DUX8, 1-420: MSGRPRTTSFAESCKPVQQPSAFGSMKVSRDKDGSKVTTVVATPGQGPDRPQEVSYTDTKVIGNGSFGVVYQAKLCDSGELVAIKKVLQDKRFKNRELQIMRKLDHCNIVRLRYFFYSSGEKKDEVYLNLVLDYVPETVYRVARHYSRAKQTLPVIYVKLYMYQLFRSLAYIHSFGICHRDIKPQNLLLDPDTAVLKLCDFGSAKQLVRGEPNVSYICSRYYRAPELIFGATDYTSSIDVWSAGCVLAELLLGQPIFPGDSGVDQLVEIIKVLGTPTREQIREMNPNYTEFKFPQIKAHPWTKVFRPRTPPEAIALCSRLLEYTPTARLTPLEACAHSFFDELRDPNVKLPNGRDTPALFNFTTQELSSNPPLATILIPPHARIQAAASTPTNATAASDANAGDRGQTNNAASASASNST
# At least one compound was matched to its structure with a doubt left. Square brackets hold non-standard residues; d marks the D form. Peptide text beside a SMILES is read from it. * marks the point of attachment. Myristoyl = CCCCCCCCCCCCCC(=O)*; pS = N[C@@H](COP(=O)(O)O)C(=O)O
# Molecular target: GSK-3β (Oryctolagus cuniculus, UniProt A0A5F9DUX8)
# Experiment: In vitro GSK-3 inhibition assay (phosphorylation of PGS-1 peptide substrate)
# Type: biochemical, rabbit
# Conditions: for IC50: read-out: IC50 of GSK-3 inhibition, in vitro kinase assay, PGS-1 peptide substrate
# Procedure: In vitro inhibition assays: Purified recombinant rabbit GSK-3β (Eldar-Finkelman et al., 1996) was incubated with peptide substrate PGS-1 ([…](p)EDEEE) (SEQ ID NO:15) and with a peptide inhibitor at indicated concentrations. The reaction mixture included Tris 50 mM (pH=7.3), 10 mM MgAc, ^32P[γ-ATP] (100 μM), 0.01% β-mercaptoethanol, and was incubated for 10 minutes at 30° C. Reactions were spotted on phosphocellulose paper (p81), washed with 100 mM phosphoric acid, and counted for radioactivity (as described in Eldar-Finkelman et al., 1996).
Compound,IC50,"Ki (read-out: Ki of GSK-3 inhibition, calculated from Lineweaver-Burk plot, competitive with PGS-1 substrate)"
"C[C@H](NC(=O)[C@H](CCC(=O)O)NC(=O)[C@@H](N)CCCCN)C(=O)N1CCC[C@H]1C(=O)N1CCC[C@H]1C(=O)N[C@@H](C)C(=O)N1CCC[C@H]1C(=O)N1CCC[C@H]1C(=O)N[C@@H](CCC(N)=O)C(=O)N[C@@H](COP(=O)(O)O)C(=O)N1CCC[C@H]1C(=O)O [Peptide 9, KEAPPAPPQS(p)P] (H-KEAPPAPPQ[pS]P-OH; N-terminus and C-terminus assumed)",150 µM,70 ± 10 µM
"CCCCCCCCCCCCCC(=O)NCC(=O)N[C@@H](CCCCN)C(=O)N[C@@H](CCC(=O)O)C(=O)N[C@@H](C)C(=O)N1CCC[C@H]1C(=O)N1CCC[C@H]1C(=O)N[C@@H](C)C(=O)N1CCC[C@H]1C(=O)N1CCC[C@H]1C(=O)N[C@@H](CCC(N)=O)C(=O)N[C@@H](COP(=O)(O)O)C(=O)N1CCC[C@H]1C(=O)O [Peptide L803-mts, N-Myristol-GKEAPPAPPQS(p)P] (Myristoyl-GKEAPPAPPQ[pS]P-OH; C-terminus assumed)",40 µM,–
